doi:10.1101/2022.11.02.514868

Chains of the proteins cited; added tags and fusions are not shown. Lines headed by an entry give the natural chain unless they say otherwise; changes in a name come on top.
UniProt P42232: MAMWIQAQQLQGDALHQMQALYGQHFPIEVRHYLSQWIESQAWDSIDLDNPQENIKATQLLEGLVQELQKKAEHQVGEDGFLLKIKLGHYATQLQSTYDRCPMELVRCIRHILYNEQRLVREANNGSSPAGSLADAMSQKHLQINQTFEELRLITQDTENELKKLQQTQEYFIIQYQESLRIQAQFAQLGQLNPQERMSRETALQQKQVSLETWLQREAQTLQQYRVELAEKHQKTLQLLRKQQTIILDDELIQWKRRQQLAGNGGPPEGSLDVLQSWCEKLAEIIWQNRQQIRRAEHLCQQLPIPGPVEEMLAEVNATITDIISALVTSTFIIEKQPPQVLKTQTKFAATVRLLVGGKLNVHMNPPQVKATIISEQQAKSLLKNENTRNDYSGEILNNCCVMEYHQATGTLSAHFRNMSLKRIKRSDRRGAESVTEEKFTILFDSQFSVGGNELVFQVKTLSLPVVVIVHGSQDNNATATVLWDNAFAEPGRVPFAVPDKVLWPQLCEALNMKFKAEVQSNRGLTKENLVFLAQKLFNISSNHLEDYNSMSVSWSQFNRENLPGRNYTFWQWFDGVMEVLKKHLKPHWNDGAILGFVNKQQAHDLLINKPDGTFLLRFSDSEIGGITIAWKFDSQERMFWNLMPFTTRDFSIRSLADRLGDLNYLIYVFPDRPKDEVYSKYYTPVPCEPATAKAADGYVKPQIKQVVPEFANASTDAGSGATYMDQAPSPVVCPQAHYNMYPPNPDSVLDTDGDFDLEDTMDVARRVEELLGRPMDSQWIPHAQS
UniProt Q03267: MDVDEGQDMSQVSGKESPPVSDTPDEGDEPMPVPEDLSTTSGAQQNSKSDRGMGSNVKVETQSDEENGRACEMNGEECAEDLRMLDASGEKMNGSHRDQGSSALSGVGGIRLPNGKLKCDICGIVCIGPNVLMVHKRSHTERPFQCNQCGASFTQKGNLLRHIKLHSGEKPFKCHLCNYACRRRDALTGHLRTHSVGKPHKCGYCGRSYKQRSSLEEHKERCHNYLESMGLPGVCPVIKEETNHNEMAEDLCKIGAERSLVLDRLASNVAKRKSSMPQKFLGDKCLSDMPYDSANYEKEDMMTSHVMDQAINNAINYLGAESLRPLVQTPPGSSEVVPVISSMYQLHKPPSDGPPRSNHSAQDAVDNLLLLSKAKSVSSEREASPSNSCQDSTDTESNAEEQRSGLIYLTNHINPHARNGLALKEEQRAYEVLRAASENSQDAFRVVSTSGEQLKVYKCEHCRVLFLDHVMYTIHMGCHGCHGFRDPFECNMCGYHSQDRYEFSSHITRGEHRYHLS
UniProt O08900: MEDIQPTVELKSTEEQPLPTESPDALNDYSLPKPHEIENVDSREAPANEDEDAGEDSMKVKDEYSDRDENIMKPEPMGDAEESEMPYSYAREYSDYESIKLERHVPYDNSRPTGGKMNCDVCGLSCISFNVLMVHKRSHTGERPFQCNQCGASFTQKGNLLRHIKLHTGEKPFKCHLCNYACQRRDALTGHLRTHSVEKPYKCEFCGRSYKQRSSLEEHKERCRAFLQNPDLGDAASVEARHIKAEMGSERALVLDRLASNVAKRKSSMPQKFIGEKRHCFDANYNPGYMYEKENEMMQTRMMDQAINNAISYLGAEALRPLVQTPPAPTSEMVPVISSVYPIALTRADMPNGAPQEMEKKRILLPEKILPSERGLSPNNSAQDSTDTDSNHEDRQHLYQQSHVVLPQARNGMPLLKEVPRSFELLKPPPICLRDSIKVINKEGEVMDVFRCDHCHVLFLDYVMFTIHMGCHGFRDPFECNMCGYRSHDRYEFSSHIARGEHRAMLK
UniProt Q8C208: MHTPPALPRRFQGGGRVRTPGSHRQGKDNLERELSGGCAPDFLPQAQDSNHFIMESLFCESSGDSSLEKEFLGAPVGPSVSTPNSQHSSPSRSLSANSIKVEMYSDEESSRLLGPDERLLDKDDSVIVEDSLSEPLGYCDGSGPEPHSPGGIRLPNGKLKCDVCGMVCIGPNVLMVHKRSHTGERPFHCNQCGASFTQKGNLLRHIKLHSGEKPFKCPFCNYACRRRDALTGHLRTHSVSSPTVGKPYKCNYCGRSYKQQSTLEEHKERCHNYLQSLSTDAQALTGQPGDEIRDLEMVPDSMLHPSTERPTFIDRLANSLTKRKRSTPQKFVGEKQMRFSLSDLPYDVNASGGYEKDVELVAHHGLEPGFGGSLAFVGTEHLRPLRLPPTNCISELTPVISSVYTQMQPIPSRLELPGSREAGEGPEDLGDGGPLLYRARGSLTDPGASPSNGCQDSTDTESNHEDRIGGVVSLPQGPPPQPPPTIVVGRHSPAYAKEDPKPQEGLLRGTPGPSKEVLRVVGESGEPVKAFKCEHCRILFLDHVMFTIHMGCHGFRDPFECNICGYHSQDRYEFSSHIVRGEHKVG

molecular target: Constitutively active STAT5B (STAT5B^CA), tagless (UniProt P42232); test: co-IP

Substance	binding
Ikaros (Ikzf1), overexpressed, V5-tagged (from UniProt Q03267 1-517)	no binding
Aiolos (Ikzf3), overexpressed, V5-tagged (from UniProt O08900 1-507)	no binding
V5-tagged wild-type Eos (Eos^WT) (from UniProt Q8C208 1-586)	binds

Results are given in words; binding and its absence hold for the method and conditions named. In cells and extracts the contact can be indirect. Binding can be weak; no strength is given.
